These results are taken from publication PMC10873344.

The chains behind the UniProt entries cited, without tags or fusion partners. Where a name states a change or a piece, a line headed by the entry shows the natural chain unless it says otherwise. A line that says so, or that is headed by a name, gives the form on record, which may keep a tag or linker. Residues count along the entry.
UniProt Q9Z2G6, residues 22-790: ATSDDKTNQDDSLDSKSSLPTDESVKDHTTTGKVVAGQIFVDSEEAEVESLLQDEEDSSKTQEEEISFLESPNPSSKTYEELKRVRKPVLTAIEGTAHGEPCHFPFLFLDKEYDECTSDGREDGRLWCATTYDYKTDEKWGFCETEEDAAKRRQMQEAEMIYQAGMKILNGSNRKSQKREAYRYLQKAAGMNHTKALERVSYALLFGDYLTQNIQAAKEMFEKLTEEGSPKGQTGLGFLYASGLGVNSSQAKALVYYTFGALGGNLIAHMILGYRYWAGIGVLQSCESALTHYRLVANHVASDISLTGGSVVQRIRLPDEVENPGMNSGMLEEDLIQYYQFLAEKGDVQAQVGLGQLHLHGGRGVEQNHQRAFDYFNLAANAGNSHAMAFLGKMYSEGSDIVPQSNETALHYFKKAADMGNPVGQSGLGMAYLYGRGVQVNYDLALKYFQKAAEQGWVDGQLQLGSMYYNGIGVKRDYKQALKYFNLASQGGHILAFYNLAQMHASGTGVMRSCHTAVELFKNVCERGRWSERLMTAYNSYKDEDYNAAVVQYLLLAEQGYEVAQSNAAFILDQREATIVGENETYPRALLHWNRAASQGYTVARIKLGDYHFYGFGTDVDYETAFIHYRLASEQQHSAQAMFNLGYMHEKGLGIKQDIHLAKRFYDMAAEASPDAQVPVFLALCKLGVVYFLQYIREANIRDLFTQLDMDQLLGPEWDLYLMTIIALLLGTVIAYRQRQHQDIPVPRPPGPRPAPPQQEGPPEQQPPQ
UniProt Q9UBV2, residues 22-794: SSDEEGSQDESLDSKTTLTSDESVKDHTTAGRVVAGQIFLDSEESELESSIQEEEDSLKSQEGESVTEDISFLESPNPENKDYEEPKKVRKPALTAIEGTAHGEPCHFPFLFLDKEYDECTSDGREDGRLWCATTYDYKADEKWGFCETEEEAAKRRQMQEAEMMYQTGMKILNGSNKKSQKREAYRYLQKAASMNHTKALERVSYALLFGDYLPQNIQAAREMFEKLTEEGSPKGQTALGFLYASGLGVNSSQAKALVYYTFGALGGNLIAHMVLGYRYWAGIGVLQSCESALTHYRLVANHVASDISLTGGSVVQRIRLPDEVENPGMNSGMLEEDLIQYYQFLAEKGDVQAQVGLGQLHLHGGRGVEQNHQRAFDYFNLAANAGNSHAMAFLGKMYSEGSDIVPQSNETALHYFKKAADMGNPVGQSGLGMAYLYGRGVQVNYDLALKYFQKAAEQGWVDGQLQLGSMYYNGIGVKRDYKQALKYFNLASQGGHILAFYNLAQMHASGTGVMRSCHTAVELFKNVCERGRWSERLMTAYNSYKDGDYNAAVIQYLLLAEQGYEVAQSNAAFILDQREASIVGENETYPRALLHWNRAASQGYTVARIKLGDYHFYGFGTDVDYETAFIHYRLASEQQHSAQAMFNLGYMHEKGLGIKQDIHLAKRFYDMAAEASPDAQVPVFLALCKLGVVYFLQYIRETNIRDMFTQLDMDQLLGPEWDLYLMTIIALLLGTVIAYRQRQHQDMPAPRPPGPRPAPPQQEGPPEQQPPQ
HRD1 (HMG-CoA reductase degradation 1), endogenous human (human (endogenous in HEK293T)) (Q86TM6, form named): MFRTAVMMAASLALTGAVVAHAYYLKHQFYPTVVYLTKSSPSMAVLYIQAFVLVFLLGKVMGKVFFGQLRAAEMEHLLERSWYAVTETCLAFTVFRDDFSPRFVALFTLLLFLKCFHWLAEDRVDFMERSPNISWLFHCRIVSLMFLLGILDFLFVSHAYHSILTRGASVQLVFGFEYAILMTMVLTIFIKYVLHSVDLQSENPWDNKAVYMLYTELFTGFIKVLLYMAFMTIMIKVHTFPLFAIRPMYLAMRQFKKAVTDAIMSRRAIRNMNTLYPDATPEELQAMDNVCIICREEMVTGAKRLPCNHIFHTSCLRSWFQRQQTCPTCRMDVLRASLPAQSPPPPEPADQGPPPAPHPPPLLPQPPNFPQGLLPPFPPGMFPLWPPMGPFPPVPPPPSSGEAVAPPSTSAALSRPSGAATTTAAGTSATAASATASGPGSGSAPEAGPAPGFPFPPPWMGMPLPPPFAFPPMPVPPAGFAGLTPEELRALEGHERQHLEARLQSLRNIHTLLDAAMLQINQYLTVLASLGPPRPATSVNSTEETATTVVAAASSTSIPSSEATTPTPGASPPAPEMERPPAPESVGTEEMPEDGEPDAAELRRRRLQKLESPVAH
human HRD1 Y30A-FLAG (Q86TM6, form named): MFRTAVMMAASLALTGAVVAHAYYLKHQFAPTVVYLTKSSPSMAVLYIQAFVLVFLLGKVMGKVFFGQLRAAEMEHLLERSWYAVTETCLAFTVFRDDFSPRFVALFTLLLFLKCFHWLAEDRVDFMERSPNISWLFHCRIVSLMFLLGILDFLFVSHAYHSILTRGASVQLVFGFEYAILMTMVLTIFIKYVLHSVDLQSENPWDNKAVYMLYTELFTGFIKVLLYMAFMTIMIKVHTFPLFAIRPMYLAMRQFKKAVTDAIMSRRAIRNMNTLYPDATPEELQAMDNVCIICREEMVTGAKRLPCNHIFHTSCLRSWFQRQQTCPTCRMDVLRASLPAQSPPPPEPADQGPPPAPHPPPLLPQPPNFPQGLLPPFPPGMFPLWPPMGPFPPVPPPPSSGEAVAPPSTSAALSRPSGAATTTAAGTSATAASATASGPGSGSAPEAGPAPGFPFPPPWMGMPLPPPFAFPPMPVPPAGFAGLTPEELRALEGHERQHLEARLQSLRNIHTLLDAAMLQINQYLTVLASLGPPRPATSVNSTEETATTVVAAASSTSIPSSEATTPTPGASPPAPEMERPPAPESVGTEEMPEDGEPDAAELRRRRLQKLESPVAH
human HRD1 Y30D-FLAG (Q86TM6, form named): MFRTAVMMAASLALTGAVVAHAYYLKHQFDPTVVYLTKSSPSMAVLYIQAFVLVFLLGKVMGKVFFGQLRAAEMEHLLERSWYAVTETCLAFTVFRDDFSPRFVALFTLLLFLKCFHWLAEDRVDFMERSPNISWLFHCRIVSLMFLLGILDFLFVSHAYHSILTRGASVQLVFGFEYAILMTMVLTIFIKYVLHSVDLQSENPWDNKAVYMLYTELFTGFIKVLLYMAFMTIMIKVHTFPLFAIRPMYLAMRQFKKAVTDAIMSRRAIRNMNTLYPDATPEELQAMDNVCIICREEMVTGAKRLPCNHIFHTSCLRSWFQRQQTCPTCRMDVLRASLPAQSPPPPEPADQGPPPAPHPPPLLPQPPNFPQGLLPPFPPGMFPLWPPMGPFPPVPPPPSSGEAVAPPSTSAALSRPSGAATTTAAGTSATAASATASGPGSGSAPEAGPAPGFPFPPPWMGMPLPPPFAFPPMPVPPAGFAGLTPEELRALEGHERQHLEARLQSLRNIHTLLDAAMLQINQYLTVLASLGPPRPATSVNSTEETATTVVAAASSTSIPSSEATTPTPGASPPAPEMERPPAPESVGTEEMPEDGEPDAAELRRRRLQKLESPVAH
human HRD1 Y30F-FLAG (Q86TM6, form named): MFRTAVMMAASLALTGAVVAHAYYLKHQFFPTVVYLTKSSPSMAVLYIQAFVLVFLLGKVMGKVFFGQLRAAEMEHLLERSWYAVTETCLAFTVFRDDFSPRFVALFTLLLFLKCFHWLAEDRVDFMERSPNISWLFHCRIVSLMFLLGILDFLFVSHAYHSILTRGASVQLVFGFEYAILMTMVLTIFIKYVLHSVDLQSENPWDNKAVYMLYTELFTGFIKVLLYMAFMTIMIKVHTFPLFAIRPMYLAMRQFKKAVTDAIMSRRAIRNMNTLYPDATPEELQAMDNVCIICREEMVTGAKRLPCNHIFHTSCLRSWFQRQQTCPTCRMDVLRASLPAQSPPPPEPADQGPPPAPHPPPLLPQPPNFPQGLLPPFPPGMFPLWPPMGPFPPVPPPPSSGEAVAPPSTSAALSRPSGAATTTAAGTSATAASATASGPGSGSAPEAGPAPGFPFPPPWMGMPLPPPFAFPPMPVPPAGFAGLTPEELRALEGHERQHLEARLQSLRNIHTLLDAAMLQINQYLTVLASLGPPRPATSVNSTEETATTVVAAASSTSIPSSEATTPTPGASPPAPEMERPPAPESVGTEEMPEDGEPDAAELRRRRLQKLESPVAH
human HRD1 Y30K-FLAG (Q86TM6, form named): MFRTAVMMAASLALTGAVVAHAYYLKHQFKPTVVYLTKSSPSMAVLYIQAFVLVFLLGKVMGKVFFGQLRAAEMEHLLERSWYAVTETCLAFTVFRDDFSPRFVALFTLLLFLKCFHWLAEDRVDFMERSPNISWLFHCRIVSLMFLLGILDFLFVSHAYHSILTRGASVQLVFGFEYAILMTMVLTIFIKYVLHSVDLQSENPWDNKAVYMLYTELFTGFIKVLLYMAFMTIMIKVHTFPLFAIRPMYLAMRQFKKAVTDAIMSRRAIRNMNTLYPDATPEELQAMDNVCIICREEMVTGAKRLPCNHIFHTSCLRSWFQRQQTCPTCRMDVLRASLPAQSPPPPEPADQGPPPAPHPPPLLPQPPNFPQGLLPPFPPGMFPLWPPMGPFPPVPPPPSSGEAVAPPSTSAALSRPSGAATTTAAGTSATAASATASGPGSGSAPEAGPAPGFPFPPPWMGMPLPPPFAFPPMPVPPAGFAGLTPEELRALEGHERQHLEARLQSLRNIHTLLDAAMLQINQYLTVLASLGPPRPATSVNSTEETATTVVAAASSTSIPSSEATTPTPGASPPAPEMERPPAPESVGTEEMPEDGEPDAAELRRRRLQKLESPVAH
UniProt Q9DBY1: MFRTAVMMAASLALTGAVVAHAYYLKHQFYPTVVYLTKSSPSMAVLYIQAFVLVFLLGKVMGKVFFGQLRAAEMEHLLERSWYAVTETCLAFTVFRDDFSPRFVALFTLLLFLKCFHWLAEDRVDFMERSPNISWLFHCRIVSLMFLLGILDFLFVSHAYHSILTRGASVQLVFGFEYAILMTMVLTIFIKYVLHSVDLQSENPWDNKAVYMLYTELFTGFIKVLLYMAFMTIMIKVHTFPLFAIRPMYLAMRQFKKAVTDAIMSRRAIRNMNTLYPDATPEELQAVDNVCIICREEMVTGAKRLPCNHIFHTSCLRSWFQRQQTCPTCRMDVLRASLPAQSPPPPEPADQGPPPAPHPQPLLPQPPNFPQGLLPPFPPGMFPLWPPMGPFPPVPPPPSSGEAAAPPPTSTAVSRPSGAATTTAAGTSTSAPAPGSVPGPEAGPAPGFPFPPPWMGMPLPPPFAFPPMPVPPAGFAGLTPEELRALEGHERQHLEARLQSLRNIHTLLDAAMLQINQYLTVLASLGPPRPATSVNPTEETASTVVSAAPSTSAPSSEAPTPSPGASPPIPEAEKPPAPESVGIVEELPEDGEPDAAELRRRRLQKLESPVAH

Results are given in words; binding and its absence hold for the method and conditions named. Binding seen in cells or lysates may run through a third protein. Some results given as binding are weak or reduced against the parent protein; the word gives no strength.

Test [1] concerns the target SEL1L, endogenous mouse (WT liver) (mouse (endogenous in liver)) (UniProt Q9Z2G6). Nature of the test: co-IP; IP of endogenous SEL1L or HRD1 (home-made antibody, protein A agarose) from livers of 5-week-old WT, HET and KI mice; 150 mM NaCl, 1% NP-40, 25 mM Tris-HCl pH 7.5.
Test [2] addresses SEL1L (suppressor of lin-12-like), endogenous human (human (endogenous in HEK293T)) (UniProt Q9UBV2). Nature of the test: co-IP; IP of endogenous HRD1 or SEL1L in WT, HRD1-/- and SEL1L-/- HEK293T cells, Western blot. Background: A western blot detects proteins with antibodies after separation by electrophoresis.
Test [3] addresses mouse SEL1L (WT)-FLAG (mouse) (UniProt Q9Z2G6). Nature of the test: co-IP; anti-FLAG agarose IP from lysates of SEL1L-/- HEK293T cells transfected with SEL1L-FLAG variants, blots for endogenous partners; 150 mM NaCl, 0.2% NP-40, 0.1% Triton X-100, 25 mM Tris-HCl pH 7.5, overnight at 4 C.
The target is the same in test [4]. Nature of the test: co-IP; SEL1L-/- HEK293T cells overexpressing both SEL1L-FLAG and HRD1-Myc (Supplementary Fig. 6d); which tag was precipitated not shown.
The target in test [5] is HRD1 (HMG-CoA reductase degradation 1), endogenous human (human (endogenous in HEK293T)) (UniProt Q86TM6). Nature of the test: co-IP; IP of endogenous HRD1 or SEL1L in WT, HRD1-/- and SEL1L-/- HEK293T cells, Western blot.
For test [6] the target is unchanged. Put plainly: co-IP; IP of endogenous HRD1 in SEL1L-/- HEK293T cells transfected with SEL1L-FLAG WT or S658P, Western blot.
For test [7], the target named is human HRD1 (WT)-FLAG (human) (UniProt Q86TM6). Put plainly: co-IP; HRD1-FLAG WT and Y30 mutants (Supplementary Fig. 7c); cells and bait not shown.
For test [8], the target named is human HRD1 Y30A-FLAG (human) (UniProt Q86TM6). Described as above.
Test [9] has as its target human HRD1 Y30D-FLAG (human) (UniProt Q86TM6). Described as above.
In test [10] the target is human HRD1 Y30F-FLAG (human) (UniProt Q86TM6). Described as above.
In test [11] the target is human HRD1 Y30K-FLAG (human) (UniProt Q86TM6). Described as above.

“HRD1, endogenous mouse (liver) (from UniProt Q9DBY1 1-612) (enzyme)”: the binding result in [1] is listed as “binds”.

B1: UBE2J1, endogenous human (enzyme, UniProt Q9Y385 1-318)
chain: METRYNLKSPAVKRLMKEAAELKDPTDHYHAQPLEDNLFEWHFTVRGPPDSDFDGGVYHGRIVLPPEYPMKPPSIILLTANGRFEVGKKICLSISGHHPETWQPSWSIRTALLAIIGFMPTKGEGAIGSLDYTPEERRALAKKSQDFCCEGCGSAMKDVLLPLKSGSDSSQADQEAKELARQISFKAEVNSSGKTISESDLNHSFSLTDLQDDIPTTFQGATASTSYGLQNSSAASFHQPTQPVAKNTSMSPRQRRAQQQSQRRLSTSPDVIQGHQPRDNHTDHGGSAVLIVILTLALAALIFRRIYLANEYIFDFEL
B1: the binding entry in test [2] and in test [3] was “binds” each time.

B2: ERLEC1 (ER lectin 1), endogenous human (protein, UniProt Q96DZ1 34-483)
chain: LPQLSDDIPFRVNWPGTEFSLPTTGVLYKEDNYVIMTTAHKEKYKCILPLVTSGDEEEEKDYKGPNPRELLEPLFKQSSCSYRIESYWTYEVCHGKHIRQYHEEKETGQKINIHEYYLGNMLAKNLLFEKEREAEEKEKSNEIPTKNIEGQMTPYYPVGMGNGTPCSLKQNRPRSSTVMYICHPESKHEILSVAEVTTCEYEVVILTPLLCSHPKYRFRASPVNDIFCQSLPGSPFKPLTLRQLEQQEEILRVPFRRNKEEDLQSTKEERFPAIHKSIAIGSQPVLTVGTTHISKLTDDQLIKEFLSGSYCFRGGVGWWKYEFCYGKHVHQYHEDKDSGKTSVVVGTWNQEEHIEWAKKNTARAYHLQDDGTQTVRMVSHFYGNGDICDITDKPRQVTVKLKCKESDSPHAVTVYMLEPHSCQYILGVESPVICKILDTADENGLLSLPN
Turning to B2, the binding entry in test [4] and in [3] was “binds” in each case.

B3: HERP1, endogenous human (protein, UniProt Q15011 1-391)
chain: MESETEPEPVTLLVKSPNQRHRDLELSGDRGWSVGHLKAHLSRVYPERPRPEDQRLIYSGKLLLDHQCLRDLLPKQEKRHVLHLVCNVKSPSKMPEINAKVAESTEEPAGSNRGQYPEDSSSDGLRQREVLRNLSSPGWENISRPEAAQQAFQGLGPGFSGYTPYGWLQLSWFQQIYARQYYMQYLAATAASGAFVPPPSAQEIPVVSAPAPAPIHNQFPAENQPANQNAAPQVVVNPGANQNLRMNAQGGPIVEEDDEINRDWLDWTYSAATFSVFLSILYFYSSLSRFLMVMGATVVMYLHHVGWFPFRPRPVQNFPNDGPPPDVVNQDPNNNLQEGTDPETEDPNHLPPDRDVLDGEQTSPSFMSTAWLVFKTFFASLLPEGPPAIAN
Take B3: the binding entry in [5] and in test [6] was “binds” throughout.

B4: DERL2, endogenous human (protein, UniProt Q9GZP9 1-239)
chain: MAYQSLRLEYLQIPPVSRAYTTACVLTTAAVQLELITPFQLYFNPELIFKHFQIWRLITNFLFFGPVGFNFLFNMIFLYRYCRMLEEGSFRGRTADFVFMFLFGGFLMTLFGLFVSLVFLGQAFTIMLVYVWSRRNPYVRMNFFGLLNFQAPFLPWVLMGFSLLLGNSIIVDLLGIAVGHIYFFLEDVFPNQPGGIRILKTPSILKAIFDTPDEDPNYNPLPEERPGGFAWGEGQRLGG
Take B4: the binding result in test [2] and in [3] was “binds” in each case.

B5: OS9 (Osteosarcoma amplified 9), endogenous human (protein, UniProt Q13438 26-667)
chain: GGVGSLNLEELSEMRYGIEILPLPVMGGQSQSSDVVIVSSKYKQRYECRLPAGAIHFQREREEETPAYQGPGIPELLSPMRDAPCLLKTKDWWTYEFCYGRHIQQYHMEDSEIKGEVLYLGYYQSAFDWDDETAKASKQHRLKRYHSQTYGNGSKCDLNGRPREAEVRFLCDEGAGISGDYIDRVDEPLSCSYVLTIRTPRLCPHPLLRPPPSAAPQAILCHPSLQPEEYMAYVQRQADSKQYGDKIIEELQDLGPQVWSETKSGVAPQKMAGASPTKDDSKDSDFWKMLNEPEDQAPGGEEVPAEEQDPSPEAADSASGAPNDFQNNVQVKVIRSPADLIRFIEELKGGTKKGKPNIGQEQPVDDAAEVPQREPEKERGDPERQREMEEEEDEDEDEDEDEDERQLLGEFEKELEGILLPSDRDRLRSEVKAGMERELENIIQETEKELDPDGLKKESERDRAMLALTSTLNKLIKRLEEKQSPELVKKHKKKRVVPKKPPPSPQPTEEDPEHRVRVRVTKLRLGGPNQDLTVLEMKRENPQLKQIEGLVKELLEREGLTAAGKIEIKIVRPWAEGTEEGARWLTDEDTRNLKEIFFNILVPGAEEAQKERQRQKELESNYRRVWGSPGGEGTGDLDEFDF
In the case of B5, the binding entry in test [2], in test [4] and in test [3] was “binds” throughout.

B6: FAM8A1, endogenous human (protein, UniProt Q9UBU6 1-413)
chain: MAEGPEEARGHPPGQDDGGGDHEPVPSLRGPPTTAVPCPRDDPQAEPQAPGRPTAPGLAAAAAADKLEPPRELRKRGEAASGSGAELQEQAGCEAPEAAAPRERPARLSAREYSRQVHEWLWQSYCGYLTWHSGLAAFPAYCSPQPSPQSFPSGGAAVPQAAAPPPPQLGYYNPFYFLSPGAAGPDPRTAAGISTPAPVAGLGPRAPHVQASVRATPVTRVGSAAPSRSPSETGRQAGREYVIPSLAHRFMAEMVDFFILFFIKATIVLSIMHLSGIKDISKFAMHYIIEEIDEDTSMEDLQKMMVVALIYRLLVCFYEIICIWGAGGATPGKFLLGLRVVTCDTSVLIAPSRVLVIPSSNVSITTSTIRALIKNFSIASFFPAFITLLFFQHNRTAYDIVAGTIVVKRNGVR
With B6, the binding result in test [7], in [8], in [9], in test [10], in [11] and in test [5] was “binds” in each case. The binding entry in test [6] is on record as “binds”.

B7: ERLEC1, endogenous mouse (liver) (protein, UniProt Q8VEH8 34-483)
chain: LPQLSDDIPFRVNWPGTEFSLPTTGVLYKEDNYIIMTTAHKEKYKCILPLVTSGDEEEEKDYKGPNPRELLEPLFKQSSCSYRIESYWTYEVCHGKHIRQYHEEKETGQKVNIHEYYLGNMLAKNLLYEKEREAKENEKSNEIPTKNIEGQMTPYYPVGMGNGTPCSLKQNRPRSSTVMYICHPESKHEILSVAEVTTCEYEVVILTPLLCSHPKYKFRASPVNDIFCQSLPGSPFKPLTLRQLEQQEEILRVPFRRNKEEDLPSAKEERFPAIHKPIAVGSQPVLTVGTTHISKLTDDQLIKEFLSGSYCFHGGVGWWKYEFCYGKHVHQYHEDKDNGKTSVVVGTWNQEEHVEWAKKNTARAYHLQDDGTQTVRMVSHFYGNGDICDITDKPRQVTVKLKCKESDSPHAVTVYMLEPHSCQYILGVESPVICKILDTADENGLLSLPN
Regarding B7, the binding result in test [1] is “binds”.
